These are yes or no findings as the source states them, for the method shown. Binding calls can cover weak binding; strength is not graded here. Tags and fused reporters may be left off the sequences shown.
Target: T1, VDR-pBIND (vitamin D receptor fused to the GAL4 DNA-binding domain) (human) (UniProt P11473)
T1 sequence: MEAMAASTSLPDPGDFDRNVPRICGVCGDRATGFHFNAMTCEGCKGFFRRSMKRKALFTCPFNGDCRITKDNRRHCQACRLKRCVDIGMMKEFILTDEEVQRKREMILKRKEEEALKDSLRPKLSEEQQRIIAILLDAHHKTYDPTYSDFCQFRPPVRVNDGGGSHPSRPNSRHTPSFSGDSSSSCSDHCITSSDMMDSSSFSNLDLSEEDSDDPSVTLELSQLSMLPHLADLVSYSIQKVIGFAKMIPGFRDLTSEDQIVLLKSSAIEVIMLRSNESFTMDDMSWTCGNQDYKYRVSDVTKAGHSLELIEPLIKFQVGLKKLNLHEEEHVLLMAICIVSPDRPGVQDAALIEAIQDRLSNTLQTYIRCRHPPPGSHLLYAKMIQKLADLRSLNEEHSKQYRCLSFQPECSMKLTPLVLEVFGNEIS
Experiment: two-hybrid

binding: binds
Substance: RXR-pACT (retinoid X receptor fused to the VP16 activation domain) (human)

Reference: paper doi:10.1101/2025.02.03.636272
